Residue numbers refer to the chain shown, from its start. These are yes or no findings as the source states them, for the method shown. Some binding calls cover weakened binding; strength is not graded here.
What was measured:
[1] = molecular target: T1, Full-length cynomolgus NT5E (recombinant) (cynomolgus); assay: ELISA
T1 sequence: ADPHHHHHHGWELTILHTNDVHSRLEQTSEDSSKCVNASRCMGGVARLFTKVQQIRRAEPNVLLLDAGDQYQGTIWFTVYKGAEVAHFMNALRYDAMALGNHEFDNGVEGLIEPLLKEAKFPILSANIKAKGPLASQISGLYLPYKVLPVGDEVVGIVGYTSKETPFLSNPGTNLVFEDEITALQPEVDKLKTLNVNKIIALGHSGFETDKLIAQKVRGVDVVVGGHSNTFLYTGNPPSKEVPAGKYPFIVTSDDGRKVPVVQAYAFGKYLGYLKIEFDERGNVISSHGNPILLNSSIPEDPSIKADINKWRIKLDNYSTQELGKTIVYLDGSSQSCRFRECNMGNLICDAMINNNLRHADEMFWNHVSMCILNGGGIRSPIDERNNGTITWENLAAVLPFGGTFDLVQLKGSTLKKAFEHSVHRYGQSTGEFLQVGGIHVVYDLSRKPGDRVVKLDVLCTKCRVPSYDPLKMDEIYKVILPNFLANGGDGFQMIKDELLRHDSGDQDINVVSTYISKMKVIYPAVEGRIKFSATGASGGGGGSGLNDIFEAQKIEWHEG

[2] = molecular target: T2, Full-length human NT5E (recombinant, in-house) (human) (UniProt P21589); assay: ELISA
T2 sequence: T1 sequence with T209M, M363T, I476V

[3] = molecular target: T3, Full-length murine NT5E (recombinant) (murine) (UniProt Q61503); assay: ELISA
T3 sequence: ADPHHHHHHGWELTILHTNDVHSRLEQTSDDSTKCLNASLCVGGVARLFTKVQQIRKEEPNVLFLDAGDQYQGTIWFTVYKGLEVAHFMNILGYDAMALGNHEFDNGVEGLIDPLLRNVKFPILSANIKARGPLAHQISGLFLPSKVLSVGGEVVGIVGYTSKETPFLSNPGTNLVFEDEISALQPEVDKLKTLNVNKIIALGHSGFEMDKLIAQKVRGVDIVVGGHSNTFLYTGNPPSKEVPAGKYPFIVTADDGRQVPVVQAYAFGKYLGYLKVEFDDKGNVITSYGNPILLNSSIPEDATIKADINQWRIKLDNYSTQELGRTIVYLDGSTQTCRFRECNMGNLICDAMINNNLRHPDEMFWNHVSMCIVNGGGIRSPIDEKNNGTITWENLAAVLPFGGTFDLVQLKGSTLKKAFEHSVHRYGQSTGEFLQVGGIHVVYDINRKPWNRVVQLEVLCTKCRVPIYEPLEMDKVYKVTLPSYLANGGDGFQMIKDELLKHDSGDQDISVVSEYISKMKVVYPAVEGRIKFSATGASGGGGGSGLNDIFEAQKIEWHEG

[4] = molecular target: T4, murine NT5E expressed on 4T1 cells (murine) (UniProt Q61503); assay: flow cytometry on 4T1 cells, ATP-free
T4 sequence (looked up): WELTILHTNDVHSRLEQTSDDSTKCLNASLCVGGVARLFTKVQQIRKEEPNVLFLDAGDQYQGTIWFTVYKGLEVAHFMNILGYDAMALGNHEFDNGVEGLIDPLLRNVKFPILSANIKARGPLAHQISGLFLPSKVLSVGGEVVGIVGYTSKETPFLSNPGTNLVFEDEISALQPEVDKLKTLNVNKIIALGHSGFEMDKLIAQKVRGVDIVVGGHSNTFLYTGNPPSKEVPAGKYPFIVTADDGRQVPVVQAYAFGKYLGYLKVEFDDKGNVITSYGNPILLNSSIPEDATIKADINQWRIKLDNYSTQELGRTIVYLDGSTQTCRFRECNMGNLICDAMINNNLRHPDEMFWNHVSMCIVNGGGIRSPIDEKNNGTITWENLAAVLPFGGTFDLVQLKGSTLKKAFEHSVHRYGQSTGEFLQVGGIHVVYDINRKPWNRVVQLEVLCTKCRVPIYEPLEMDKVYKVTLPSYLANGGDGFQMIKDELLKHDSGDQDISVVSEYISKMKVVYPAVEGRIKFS

[5] = molecular target: T3, Full-length murine NT5E (recombinant) (murine); assay: ELISA on immobilized murine NT5E, no ATP
[6] = molecular target: T5, human NT5E expressed on MDA-MB-231 cells (human) (UniProt P21589); assay: flow cytometry on MDA-MB-231 cells, ATP-free
T5 sequence (looked up): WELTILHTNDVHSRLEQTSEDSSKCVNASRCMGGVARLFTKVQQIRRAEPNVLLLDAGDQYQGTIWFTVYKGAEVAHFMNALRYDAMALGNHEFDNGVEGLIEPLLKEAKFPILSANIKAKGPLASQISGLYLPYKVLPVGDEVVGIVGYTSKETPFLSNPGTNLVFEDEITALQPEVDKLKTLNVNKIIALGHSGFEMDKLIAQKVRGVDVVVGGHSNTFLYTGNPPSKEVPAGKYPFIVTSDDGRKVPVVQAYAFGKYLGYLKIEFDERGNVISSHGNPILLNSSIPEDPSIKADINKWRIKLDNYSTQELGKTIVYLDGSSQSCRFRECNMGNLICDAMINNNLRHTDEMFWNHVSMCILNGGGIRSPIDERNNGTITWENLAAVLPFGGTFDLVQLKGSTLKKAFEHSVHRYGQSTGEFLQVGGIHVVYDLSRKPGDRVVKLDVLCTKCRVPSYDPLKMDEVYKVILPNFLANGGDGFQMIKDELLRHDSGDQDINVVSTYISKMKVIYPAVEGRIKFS

[7] = molecular target: T5, human NT5E expressed on MDA-MB-231 cells (human); assay: flow cytometry on MDA-MB-231 cells, ATP-free vs 1 mM ATP
[8] = molecular target: T4, murine NT5E expressed on 4T1 cells (murine); assay: flow cytometry on 4T1 cells, single IgG concentration 100 nM, +ATP
[9] = molecular target: T4, murine NT5E expressed on 4T1 cells (murine); assay: flow cytometry on 4T1 cells, single IgG concentration 100 nM, -ATP

Measured: binding

B1: 1789 IgG (antibody, V domains shown)
VH: EVQLVESGGGLVQPGGSLRLSCAASGFNVSYSSIHWVRQAPGKGLEWVASISSSSGYTYYADSVKGRFTISADTSKNTAYLQMNSLRAEDTAVYYCARNYWGWYPFYYFAFDYWGQGTLVTVSS
VL: DIQMTQSPSSLSASVGDRVTITCRASQSVSSAVAWYQQKPGKAPKLLIYSASSLYSGVPSRFSGSRSGTDFTLTISSLQPEDFATYYCQQGWDYPITFGQGTKVEIKR
not listed: [8] | [9]
binds: all other assays above

B2: 1780 IgG (antibody, V domains shown)
VH: EVQLVESGGGLVQPGGSLRLSCAASGFNFYSYSIHWVRQAPGKGLEWVASISSSSGYTYYADSVKGRFTISADTSKNTAYLQMNSLRAEDTAVYYCARYSWWGWHMEGWWGYMNAFDYWGQGTLVTVSS
VL: B1 VL with G91A, W92H, D93P, Y94K
binds: [8] | [9]

Source: patent US20240199757A1
